Assay results reported in the supplement of paper PMC10849652.
This is one part of the list. Residues, ends and D or L forms follow the SMILES beside them. *: point of attachment. Cbz = O=C(OCc1ccccc1)*

Amino acid sequences for entries named in this document (tags omitted). A change or cut given only in a name is not applied to a line headed by its entry.
UniProt P30622: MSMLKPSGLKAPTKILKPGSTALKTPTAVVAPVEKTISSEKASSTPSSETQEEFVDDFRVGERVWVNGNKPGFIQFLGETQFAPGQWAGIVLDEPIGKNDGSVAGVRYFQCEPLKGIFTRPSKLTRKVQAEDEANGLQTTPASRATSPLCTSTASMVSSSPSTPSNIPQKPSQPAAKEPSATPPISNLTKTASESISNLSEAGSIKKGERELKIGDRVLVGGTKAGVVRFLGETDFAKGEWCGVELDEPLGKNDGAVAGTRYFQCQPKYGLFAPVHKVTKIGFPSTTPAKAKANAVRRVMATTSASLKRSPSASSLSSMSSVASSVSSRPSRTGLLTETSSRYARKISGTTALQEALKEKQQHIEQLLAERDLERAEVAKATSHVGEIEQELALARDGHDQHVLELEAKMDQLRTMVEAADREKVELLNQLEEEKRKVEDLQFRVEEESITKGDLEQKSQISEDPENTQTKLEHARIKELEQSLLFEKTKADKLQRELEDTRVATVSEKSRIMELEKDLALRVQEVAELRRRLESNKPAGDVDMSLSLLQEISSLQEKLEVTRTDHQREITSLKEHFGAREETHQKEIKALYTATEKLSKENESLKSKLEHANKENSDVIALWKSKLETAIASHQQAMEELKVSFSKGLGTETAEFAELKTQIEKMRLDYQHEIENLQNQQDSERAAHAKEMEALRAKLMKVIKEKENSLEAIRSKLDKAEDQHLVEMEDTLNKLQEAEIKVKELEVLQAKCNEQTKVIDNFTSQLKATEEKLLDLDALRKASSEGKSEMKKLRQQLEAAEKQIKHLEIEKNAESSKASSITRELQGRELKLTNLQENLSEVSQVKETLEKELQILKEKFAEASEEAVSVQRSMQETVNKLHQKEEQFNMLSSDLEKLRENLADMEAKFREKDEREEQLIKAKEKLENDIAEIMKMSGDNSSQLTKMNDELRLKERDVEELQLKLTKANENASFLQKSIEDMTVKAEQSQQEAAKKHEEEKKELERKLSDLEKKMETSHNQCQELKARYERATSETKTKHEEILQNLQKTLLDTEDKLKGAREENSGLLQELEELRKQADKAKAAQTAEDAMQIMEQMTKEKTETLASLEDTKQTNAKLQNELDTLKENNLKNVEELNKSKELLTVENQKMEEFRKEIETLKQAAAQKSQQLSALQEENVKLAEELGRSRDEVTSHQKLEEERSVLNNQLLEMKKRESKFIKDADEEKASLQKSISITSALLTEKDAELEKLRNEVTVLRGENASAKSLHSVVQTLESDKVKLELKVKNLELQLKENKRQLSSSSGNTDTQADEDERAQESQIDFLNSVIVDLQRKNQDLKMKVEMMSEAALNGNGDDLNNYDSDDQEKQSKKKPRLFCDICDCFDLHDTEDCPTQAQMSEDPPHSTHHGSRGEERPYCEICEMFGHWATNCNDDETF
UniProt O75153: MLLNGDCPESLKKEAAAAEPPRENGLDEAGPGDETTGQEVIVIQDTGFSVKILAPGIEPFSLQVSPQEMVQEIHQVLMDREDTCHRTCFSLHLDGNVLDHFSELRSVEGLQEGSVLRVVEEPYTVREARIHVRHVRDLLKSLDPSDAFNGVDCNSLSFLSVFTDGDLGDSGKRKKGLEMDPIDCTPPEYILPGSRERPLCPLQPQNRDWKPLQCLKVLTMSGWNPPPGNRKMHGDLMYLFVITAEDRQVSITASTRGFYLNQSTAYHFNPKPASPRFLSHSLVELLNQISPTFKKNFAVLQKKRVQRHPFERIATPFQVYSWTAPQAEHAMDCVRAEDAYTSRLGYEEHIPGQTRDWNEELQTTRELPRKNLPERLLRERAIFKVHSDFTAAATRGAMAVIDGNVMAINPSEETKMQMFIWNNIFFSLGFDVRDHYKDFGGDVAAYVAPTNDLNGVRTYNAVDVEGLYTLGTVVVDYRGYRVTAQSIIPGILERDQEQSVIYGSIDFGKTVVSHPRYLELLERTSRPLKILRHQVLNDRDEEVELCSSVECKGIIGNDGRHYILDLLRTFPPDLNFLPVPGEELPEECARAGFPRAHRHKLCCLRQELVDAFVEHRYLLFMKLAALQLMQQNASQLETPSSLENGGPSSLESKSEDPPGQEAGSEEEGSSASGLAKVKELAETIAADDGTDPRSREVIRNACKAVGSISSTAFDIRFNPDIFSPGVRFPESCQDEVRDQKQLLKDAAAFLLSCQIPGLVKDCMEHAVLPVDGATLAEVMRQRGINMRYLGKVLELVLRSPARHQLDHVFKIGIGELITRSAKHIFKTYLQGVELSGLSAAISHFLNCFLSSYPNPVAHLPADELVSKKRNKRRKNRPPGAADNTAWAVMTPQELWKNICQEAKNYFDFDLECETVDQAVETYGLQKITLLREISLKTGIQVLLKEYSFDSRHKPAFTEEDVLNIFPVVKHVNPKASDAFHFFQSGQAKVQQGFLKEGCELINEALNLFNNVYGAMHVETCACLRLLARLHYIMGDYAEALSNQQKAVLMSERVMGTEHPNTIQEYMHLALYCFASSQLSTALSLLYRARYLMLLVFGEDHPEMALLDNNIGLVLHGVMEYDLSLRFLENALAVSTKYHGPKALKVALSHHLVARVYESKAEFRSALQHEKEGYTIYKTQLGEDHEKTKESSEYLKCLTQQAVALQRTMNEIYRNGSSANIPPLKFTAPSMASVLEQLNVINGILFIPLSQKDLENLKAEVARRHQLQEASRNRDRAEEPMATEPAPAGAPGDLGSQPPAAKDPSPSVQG
UniProt Q14677: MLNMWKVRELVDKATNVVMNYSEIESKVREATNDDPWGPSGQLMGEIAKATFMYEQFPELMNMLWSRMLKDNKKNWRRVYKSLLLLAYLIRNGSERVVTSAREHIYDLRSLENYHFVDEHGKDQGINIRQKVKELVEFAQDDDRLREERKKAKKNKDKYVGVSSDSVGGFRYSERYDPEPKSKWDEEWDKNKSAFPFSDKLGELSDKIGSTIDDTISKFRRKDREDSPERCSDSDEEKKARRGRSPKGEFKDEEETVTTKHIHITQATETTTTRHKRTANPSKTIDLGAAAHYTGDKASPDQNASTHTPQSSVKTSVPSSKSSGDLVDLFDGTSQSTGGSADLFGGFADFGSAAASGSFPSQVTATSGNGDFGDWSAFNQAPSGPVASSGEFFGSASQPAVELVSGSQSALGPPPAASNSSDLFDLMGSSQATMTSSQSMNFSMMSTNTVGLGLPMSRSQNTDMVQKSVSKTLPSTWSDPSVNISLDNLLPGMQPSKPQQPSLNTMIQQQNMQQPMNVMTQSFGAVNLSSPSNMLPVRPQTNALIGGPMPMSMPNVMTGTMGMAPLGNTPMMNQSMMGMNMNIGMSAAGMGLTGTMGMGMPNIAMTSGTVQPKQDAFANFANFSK
UniProt Q96KA5: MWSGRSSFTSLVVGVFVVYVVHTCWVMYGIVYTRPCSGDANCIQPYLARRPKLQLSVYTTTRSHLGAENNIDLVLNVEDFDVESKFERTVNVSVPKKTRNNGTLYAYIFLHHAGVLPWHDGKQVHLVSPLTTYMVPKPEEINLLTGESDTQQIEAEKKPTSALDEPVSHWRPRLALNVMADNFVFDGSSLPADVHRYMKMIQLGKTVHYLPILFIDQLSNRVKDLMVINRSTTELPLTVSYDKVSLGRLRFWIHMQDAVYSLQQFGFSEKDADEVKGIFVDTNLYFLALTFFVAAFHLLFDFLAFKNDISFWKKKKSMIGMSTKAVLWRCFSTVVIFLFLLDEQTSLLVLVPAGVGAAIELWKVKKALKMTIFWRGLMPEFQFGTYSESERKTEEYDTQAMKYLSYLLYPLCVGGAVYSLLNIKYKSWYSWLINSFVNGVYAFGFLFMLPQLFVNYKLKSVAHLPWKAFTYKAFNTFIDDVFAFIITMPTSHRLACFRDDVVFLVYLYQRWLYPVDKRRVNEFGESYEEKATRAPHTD
UniProt Q96S66: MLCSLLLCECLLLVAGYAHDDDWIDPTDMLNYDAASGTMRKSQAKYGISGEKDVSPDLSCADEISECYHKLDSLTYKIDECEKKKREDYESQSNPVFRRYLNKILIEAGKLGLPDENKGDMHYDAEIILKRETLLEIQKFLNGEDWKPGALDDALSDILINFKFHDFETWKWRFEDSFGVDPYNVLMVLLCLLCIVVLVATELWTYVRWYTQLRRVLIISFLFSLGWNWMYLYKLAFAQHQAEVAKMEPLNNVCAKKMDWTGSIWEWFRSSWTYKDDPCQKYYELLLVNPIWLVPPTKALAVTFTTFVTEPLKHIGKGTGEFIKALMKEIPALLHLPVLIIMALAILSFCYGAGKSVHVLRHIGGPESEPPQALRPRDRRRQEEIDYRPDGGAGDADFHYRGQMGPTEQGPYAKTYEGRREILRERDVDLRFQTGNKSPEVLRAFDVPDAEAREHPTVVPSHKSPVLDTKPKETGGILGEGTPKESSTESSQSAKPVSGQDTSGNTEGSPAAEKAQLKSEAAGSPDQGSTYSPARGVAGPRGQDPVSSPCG
UniProt P09497: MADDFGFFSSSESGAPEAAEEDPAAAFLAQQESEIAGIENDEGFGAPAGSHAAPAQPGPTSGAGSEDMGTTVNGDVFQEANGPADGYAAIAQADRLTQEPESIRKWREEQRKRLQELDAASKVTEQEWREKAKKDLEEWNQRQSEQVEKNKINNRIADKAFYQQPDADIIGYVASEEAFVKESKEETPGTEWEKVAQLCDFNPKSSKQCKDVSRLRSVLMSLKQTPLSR
UniProt P39060, whole entry, looked up: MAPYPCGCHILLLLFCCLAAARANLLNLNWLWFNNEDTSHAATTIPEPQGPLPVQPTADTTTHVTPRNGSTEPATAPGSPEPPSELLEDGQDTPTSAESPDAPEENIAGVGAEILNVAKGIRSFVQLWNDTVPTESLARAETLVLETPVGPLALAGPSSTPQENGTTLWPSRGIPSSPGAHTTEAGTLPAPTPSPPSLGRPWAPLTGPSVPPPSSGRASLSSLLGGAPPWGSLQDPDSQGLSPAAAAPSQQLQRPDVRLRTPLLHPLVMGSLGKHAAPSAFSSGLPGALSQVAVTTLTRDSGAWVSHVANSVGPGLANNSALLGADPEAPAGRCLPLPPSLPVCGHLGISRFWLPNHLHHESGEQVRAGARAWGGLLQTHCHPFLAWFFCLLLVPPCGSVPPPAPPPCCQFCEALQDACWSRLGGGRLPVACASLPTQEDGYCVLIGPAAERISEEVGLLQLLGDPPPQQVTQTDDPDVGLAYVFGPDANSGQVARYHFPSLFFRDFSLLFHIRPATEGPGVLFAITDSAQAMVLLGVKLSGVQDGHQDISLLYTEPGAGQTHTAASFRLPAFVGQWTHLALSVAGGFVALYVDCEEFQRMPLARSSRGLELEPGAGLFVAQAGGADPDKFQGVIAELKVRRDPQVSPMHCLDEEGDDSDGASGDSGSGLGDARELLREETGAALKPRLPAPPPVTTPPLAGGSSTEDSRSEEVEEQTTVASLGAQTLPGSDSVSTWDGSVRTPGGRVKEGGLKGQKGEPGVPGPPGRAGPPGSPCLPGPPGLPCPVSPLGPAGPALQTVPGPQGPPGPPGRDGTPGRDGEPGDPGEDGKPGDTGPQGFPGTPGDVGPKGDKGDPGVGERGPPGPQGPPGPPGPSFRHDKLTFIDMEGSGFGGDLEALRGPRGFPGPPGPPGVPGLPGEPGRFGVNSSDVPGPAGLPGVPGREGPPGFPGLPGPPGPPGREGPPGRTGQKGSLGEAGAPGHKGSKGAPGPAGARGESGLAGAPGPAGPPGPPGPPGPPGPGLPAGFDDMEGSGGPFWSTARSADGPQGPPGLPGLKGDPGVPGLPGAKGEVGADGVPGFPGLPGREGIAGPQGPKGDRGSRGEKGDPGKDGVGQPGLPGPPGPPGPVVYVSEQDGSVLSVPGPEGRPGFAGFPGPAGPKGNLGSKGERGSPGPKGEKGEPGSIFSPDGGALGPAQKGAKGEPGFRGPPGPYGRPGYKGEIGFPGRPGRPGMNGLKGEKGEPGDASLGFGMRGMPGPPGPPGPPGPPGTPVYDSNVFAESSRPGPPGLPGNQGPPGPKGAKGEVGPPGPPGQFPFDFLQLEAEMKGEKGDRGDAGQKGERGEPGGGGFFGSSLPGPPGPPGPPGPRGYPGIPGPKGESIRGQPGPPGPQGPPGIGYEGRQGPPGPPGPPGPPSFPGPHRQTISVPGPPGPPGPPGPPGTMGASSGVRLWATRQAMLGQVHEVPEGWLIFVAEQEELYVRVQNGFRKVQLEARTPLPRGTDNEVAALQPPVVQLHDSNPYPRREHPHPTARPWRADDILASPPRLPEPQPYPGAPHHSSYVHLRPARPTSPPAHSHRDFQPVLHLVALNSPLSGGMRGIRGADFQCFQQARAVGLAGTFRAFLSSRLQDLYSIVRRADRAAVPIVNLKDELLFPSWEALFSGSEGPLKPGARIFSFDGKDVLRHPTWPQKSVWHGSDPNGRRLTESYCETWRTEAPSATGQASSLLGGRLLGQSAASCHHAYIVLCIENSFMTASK

What was measured:
Test in all cases: log2 fold change, soluble protein after heating vs DMSO (PISA); higher = thermal stabilisation; K562 cells, 10 uM, 30 min; active = over 0.2 and 3.5 SD of the protein, either way, in both replicates (recomputed)
erlotinib = compound: C#Cc1cccc(Nc2ncnc3cc(OCCOC)c(OCCOC)cc23)c1 [erlotinib]
In short: (§1)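 K562 cells (2×10^6 cells/mL) were treated with 10 μM compound for 30 min, and aliquots were heated for 3 min over 48°C-58°C. Pooled aliquots were extracted in PBS with 0.5% NP-40 at 4°C, and the supernatant after 21,000xg for 90 min was measured by TMTpro 16plex LC-MS/MS with channel sums equalised. Reported thermal stability, relative to control samples and from duplicates, is a log2 fold change.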

[1] = compound: C/C(=N\NC(=O)C1=CC(=CC=C1)S(=O)(=O)N2CCOCC2)/C3=C(C=CC(=C3)Cl)O
In short: as §1

[2] = compound: C1=CC(=C(C=C1Cl)C2=NC3=NC=CN=C3C(=N2)NC4=CC=NC=C4)F
In short: as §1

[3] = compound: C1=CC(=CC=C1C2=NC3=C(N2)C=C(C=C3)C(=O)N)OC4=CC=C(C=C4)Cl
In short: as §1

[4] = compound: C1=CC2=C(C=CC(=C2)/C=C\3/C(=O)NC(=NCC4=CC=CS4)S3)N=C1
In short: as §1

[5] = compound: C1=CC2=NC=CN=C2C=C1/C=C/3\C(=O)NC(=O)S3
In short: as §1

[6] = compound: C1=CC=C(C=C1)C2=NC(=C(N2)C3=CC=NC=C3)C4=CC(=C(C=C4)Cl)O
In short: as §1

[7] = compound: C1=CC=C2C(=C1)C3=NNC4=CC=CC(=C43)C2=O
In short: as §1

[8] = compound: C1CCN(C1)C(=O)NC2=CC=CC(=C2)NC3=NC=C(C(=N3)NCCC4=CN=CN4)Br
In short: as §1

[9] = compound: C1CN(CCC1(CC2=CC=C(C=C2)Cl)N)C3=NC=NC4=C3C=CN4
In short: as §1

IRAK-1-4 Inhibitor I = compound: C1COCCN1CCN2C3=CC=CC=C3N=C2NC(=O)C4=CC(=CC=C4)[N+](=O)[O-] [IRAK-1-4 Inhibitor I]
In short: as §1

[10] = compound: CC(=O)c1cnc2ccc(-c3cc(Cl)c(O)c(Cl)c3)nc2c1N[C@H]1CC[C@H](CN(C)C)CC1
In short: as §1

ralimetinib = compound: CC(C)(C)Cn1c(N)nc2ccc(-c3[nH]c(C(C)(C)C)nc3-c3ccc(F)cc3)nc21 [ralimetinib]
In short: as §1

[11] = compound: CC(C)(O)CC(=O)NCCn1ccc2ncnc(Nc3ccc(Oc4cccc(C(F)(F)F)c4)c(Cl)c3)c21
In short: as §1

[12] = compound: CC(C)C1=C2N=C(C=C(N2N=C1)NCC3=CC=CC=C3)NCCCCCCN
In short: as §1

[13] = compound: CC(C)C[C@@H](C=O)NC(=O)[C@H](CC(C)C)NC(=O)[C@H](CC(C)C)NC(=O)OCc1ccccc1
In short: as §1

pinometostat = compound: CC(C)N(C[C@H]1O[C@@H](n2cnc3c(N)ncnc32)[C@H](O)[C@@H]1O)[C@H]1C[C@@H](CCc2nc3cc(C(C)(C)C)ccc3[nH]2)C1 [pinometostat]
In short: as §1

[14] = compound: CC1=C(C(CC(=O)N1)C2=CC=C(C=C2)C(F)(F)F)C(=O)NC3=C(C=C4C(=C3)C=NN4)F
In short: as §1

[15] = compound: CC1=C(C2=C(C=C1)C(=O)C3=CC=CC=C3N2CCCN)C
In short: as §1

ibrutinib = compound: C=CC(=O)N1CCC[C@@H](n2nc(-c3ccc(Oc4ccccc4)cc3)c3c(N)ncnc32)C1 [ibrutinib]
In short: as §1

| Target | log2 fold change (erlotinib) | log2 fold change [1] | log2 fold change [2] | log2 fold change [3] | log2 fold change [4] | log2 fold change [5] | log2 fold change [6] | log2 fold change [7] | log2 fold change [8] | log2 fold change [9] | log2 fold change (IRAK-1-4 Inhibitor I) | log2 fold change [10] | log2 fold change (ralimetinib) | log2 fold change [11] | log2 fold change [12] | log2 fold change [13] | log2 fold change (pinometostat) | log2 fold change [14] | log2 fold change [15] | log2 fold change (ibrutinib) |
| --- | --- | --- | --- | --- | --- | --- | --- | --- | --- | --- | --- | --- | --- | --- | --- | --- | --- | --- | --- | --- |
| CLTA isoform 2 (UniProt P09496) | inactive: 0.03 | inactive: -0.093 | inactive: -0.056 | inactive: -0.008 | inactive: -0.058 | inactive: 0.063 | inactive: -0.017 | inactive: -0.015 | inactive: 0.081 | inactive: 0.004 | inactive: 0.045 | inactive: 0.116 | inactive: 0.027 | inactive: 0 | inactive: 0.055 | inactive: 0.087 | inactive: -0.005 | inactive: 0.039 | inactive: -0.097 | – |
| CLIP1 isoform 1 (UniProt P30622) | inactive: 0.008 | inactive: 0.021 | inactive: 0.003 | inactive: 0.01 | inactive: 0 | inactive: 0.024 | inactive: -0.028 | inactive: -0.029 | inactive: -0.014 | inactive: 0.033 | inactive: 0.01 | inactive: -0.007 | inactive: -0.052 | inactive: 0.005 | inactive: 0.07 | inactive: 0.006 | inactive: -0.03 | inactive: 0.009 | inactive: -0.002 | – |
| CNOT4 isoform 6 (UniProt O95628) | inactive: 0.004 | inactive: 0.06 | inactive: 0.026 | inactive: 0.014 | inactive: 0.03 | inactive: 0.003 | inactive: -0.007 | inactive: -0.043 | inactive: -0.011 | inactive: 0.044 | inactive: 0.044 | inactive: -0.062 | inactive: -0.048 | inactive: 0.002 | inactive: 0.038 | inactive: -0.019 | inactive: -0.025 | – | inactive: 0.051 | inactive: 0.016 |
| CLUH (UniProt O75153) | inactive: 0.08 | inactive: 0 | inactive: 0.318 | inactive: -0.042 | inactive: 0.137 | active: 0.324 | inactive: 0.03 | inactive: 0.058 | inactive: -0.043 | inactive: -0.027 | inactive: 0.107 | active: 0.467 | inactive: 0.028 | inactive: -0.048 | inactive: -0.179 | inactive: -0.009 | inactive: 0.045 | – | inactive: 0.095 | – |
| CLASP2 isoform 3 (UniProt O75122) | inactive: 0.014 | inactive: 0.136 | inactive: 0.066 | inactive: 0.032 | inactive: 0.081 | inactive: -0.013 | inactive: -0.01 | inactive: 0.006 | inactive: -0.063 | inactive: 0.041 | inactive: -0.047 | active: -0.297 | inactive: 0.009 | inactive: -0.056 | inactive: -0.036 | inactive: 0.046 | inactive: 0.018 | – | inactive: 0.046 | – |
| CLNS1A (UniProt P54105) | inactive: 0.001 | inactive: 0.035 | inactive: 0.049 | inactive: 0.019 | inactive: -0.006 | inactive: -0.023 | inactive: -0.032 | inactive: -0.009 | inactive: 0.003 | inactive: -0.013 | inactive: -0.002 | inactive: 0.021 | inactive: -0.017 | inactive: -0.04 | inactive: 0.037 | inactive: -0.002 | inactive: -0.058 | inactive: -0.019 | inactive: -0.089 | – |
| CLINT1 isoform 3 (UniProt Q14677) | inactive: 0.016 | inactive: -0.134 | inactive: -0.097 | inactive: -0.036 | inactive: 0.026 | inactive: 0.05 | inactive: -0.03 | inactive: -0.042 | inactive: -0.044 | inactive: 0.042 | – | inactive: 0.135 | inactive: 0.139 | inactive: 0.102 | inactive: 0.103 | inactive: 0.04 | inactive: 0.047 | – | inactive: 0.022 | – |
| CLPTM1L (UniProt Q96KA5) | inactive: 0.011 | inactive: 0.04 | inactive: -0.029 | inactive: 0.063 | inactive: 0.032 | inactive: 0.018 | inactive: -0.002 | inactive: -0.037 | inactive: -0.022 | inactive: 0.017 | inactive: 0.051 | inactive: -0.033 | inactive: -0.05 | inactive: -0.069 | active: -0.281 | inactive: 0.006 | inactive: 0.023 | – | inactive: 0.033 | – |
| CLCC1 (UniProt Q96S66) | inactive: 0.02 | inactive: -0.003 | inactive: 0 | inactive: -0.003 | inactive: 0.026 | inactive: 0.059 | inactive: -0.015 | inactive: -0.045 | inactive: 0.027 | inactive: 0.017 | inactive: 0.016 | inactive: -0.005 | inactive: -0.064 | inactive: 0.002 | inactive: 0.003 | inactive: -0.041 | inactive: -0.032 | inactive: -0.016 | inactive: 0.043 | – |
| CLTC (UniProt Q00610) | inactive: 0.027 | inactive: -0.08 | inactive: 0.004 | inactive: -0.122 | inactive: 0.088 | inactive: 0.004 | inactive: 0.121 | inactive: 0.084 | inactive: 0.041 | inactive: -0.099 | inactive: 0.026 | inactive: 0.135 | inactive: 0.196 | inactive: 0 | inactive: -0.188 | inactive: 0.036 | inactive: 0.032 | inactive: -0.103 | inactive: 0.024 | – |
| CLTB (UniProt P09497) | inactive: 0.106 | inactive: -0.042 | inactive: 0.038 | inactive: -0.05 | inactive: -0.02 | inactive: 0.039 | inactive: 0.069 | inactive: 0.028 | inactive: 0.008 | inactive: 0.023 | inactive: 0.053 | inactive: 0.089 | inactive: 0.061 | inactive: -0.021 | inactive: 0.024 | inactive: -0.067 | inactive: -0.07 | – | inactive: -0.007 | – |
| CLPX (UniProt O76031) | inactive: -0.062 | inactive: 0.056 | inactive: 0.01 | inactive: 0.004 | inactive: -0.009 | inactive: 0.036 | inactive: -0.008 | inactive: -0.034 | inactive: -0.03 | inactive: -0.003 | inactive: 0.002 | inactive: 0.006 | inactive: -0.03 | inactive: -0.02 | inactive: 0.048 | inactive: -0.055 | inactive: -0.026 | – | inactive: 0.012 | – |
| COL18A1 (UniProt P39060) | inactive: -0.156 | inactive: 0.01 | inactive: -0.131 | inactive: 0.129 | inactive: -0.189 | inactive: 0.039 | inactive: -0.075 | inactive: -0.021 | inactive: -0.181 | inactive: 0.017 | – | inactive: -0.036 | inactive: -0.216 | inactive: 0.017 | inactive: -0.053 | inactive: 0.197 | – | inactive: 0.036 | inactive: -0.007 | inactive: 0.076 |
| CLIC1 (UniProt O00299) | inactive: -0.018 | inactive: 0.03 | inactive: 0.038 | inactive: -0.025 | inactive: -0.022 | inactive: -0.022 | inactive: 0.02 | inactive: 0.009 | inactive: 0.017 | inactive: 0.047 | inactive: 0.044 | inactive: -0.008 | inactive: -0.047 | inactive: 0.003 | inactive: 0.016 | inactive: -0.01 | inactive: -0.032 | inactive: 0.056 | inactive: -0.037 | – |
| COIL (UniProt P38432) | inactive: -0.109 | inactive: -0.021 | inactive: 0.048 | inactive: 0.134 | inactive: 0.157 | inactive: 0.071 | inactive: -0.161 | inactive: -0.05 | inactive: 0.084 | inactive: -0.263 | – | inactive: -0.111 | inactive: -0.226 | inactive: 0 | inactive: -0.114 | inactive: 0.201 | – | inactive: -0.04 | inactive: -0.041 | inactive: -0.06 |
| CLCN3 (UniProt P51790) | inactive: -0.024 | inactive: 0.079 | inactive: -0.053 | inactive: -0.045 | inactive: 0.023 | inactive: 0.07 | inactive: -0.01 | inactive: -0.03 | inactive: -0.032 | inactive: 0.055 | inactive: 0.014 | inactive: -0.062 | inactive: -0.076 | inactive: 0.015 | inactive: -0.05 | inactive: -0.039 | inactive: -0.031 | – | inactive: -0.053 | – |
| CLCN7 (UniProt P51798) | inactive: 0.079 | inactive: 0.047 | inactive: 0.075 | inactive: -0.008 | inactive: 0.023 | inactive: 0.063 | inactive: 0.076 | inactive: -0.05 | inactive: 0.016 | inactive: 0.001 | inactive: -0.01 | inactive: -0.005 | inactive: -0.055 | inactive: -0.08 | active: -0.91 | inactive: 0 | inactive: -0.051 | – | inactive: -0.092 | – |

Some values from the list:
Entry for COIL (UniProt P38432) under log2 fold change [12]: inactive: -0.114
Entry for CLTA isoform 2 (UniProt P09496) under log2 fold change (ralimetinib): inactive: 0.027
